# The other results are listed elsewhere or left out.
# Amino acid sequences for entries named in this document (tags omitted). A change or cut given only in a name is not applied to a line headed by its entry.
# UniProt Q9Y5Z9: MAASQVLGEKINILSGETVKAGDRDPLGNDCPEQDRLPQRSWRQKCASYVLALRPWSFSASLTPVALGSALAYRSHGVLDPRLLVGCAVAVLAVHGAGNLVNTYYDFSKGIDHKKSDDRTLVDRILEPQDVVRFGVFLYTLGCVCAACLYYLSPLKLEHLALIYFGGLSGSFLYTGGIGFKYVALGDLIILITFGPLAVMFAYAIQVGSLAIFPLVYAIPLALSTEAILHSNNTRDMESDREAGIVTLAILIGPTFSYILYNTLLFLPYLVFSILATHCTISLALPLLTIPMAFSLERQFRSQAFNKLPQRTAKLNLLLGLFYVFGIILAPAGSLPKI
# UniProt O94782: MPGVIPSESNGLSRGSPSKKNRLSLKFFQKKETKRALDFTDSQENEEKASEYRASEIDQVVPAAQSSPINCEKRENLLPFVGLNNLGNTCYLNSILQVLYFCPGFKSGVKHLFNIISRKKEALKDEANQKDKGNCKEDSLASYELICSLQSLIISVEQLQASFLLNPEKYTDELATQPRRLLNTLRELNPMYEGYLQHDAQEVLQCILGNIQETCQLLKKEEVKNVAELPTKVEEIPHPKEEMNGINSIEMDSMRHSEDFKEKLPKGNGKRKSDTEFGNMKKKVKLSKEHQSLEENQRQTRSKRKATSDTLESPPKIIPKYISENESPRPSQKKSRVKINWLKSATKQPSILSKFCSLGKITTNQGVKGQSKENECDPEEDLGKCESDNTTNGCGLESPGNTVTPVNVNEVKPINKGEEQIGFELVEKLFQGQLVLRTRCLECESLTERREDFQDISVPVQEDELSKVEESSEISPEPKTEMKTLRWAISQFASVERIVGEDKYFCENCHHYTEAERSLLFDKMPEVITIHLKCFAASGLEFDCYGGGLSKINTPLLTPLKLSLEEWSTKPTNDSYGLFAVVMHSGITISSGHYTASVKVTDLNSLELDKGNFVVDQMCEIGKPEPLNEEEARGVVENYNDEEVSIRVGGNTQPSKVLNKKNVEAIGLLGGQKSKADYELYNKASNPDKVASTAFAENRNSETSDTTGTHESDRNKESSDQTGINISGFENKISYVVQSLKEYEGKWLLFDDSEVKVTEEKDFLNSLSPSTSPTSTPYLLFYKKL
# UniProt Q14694, whole entry, looked up: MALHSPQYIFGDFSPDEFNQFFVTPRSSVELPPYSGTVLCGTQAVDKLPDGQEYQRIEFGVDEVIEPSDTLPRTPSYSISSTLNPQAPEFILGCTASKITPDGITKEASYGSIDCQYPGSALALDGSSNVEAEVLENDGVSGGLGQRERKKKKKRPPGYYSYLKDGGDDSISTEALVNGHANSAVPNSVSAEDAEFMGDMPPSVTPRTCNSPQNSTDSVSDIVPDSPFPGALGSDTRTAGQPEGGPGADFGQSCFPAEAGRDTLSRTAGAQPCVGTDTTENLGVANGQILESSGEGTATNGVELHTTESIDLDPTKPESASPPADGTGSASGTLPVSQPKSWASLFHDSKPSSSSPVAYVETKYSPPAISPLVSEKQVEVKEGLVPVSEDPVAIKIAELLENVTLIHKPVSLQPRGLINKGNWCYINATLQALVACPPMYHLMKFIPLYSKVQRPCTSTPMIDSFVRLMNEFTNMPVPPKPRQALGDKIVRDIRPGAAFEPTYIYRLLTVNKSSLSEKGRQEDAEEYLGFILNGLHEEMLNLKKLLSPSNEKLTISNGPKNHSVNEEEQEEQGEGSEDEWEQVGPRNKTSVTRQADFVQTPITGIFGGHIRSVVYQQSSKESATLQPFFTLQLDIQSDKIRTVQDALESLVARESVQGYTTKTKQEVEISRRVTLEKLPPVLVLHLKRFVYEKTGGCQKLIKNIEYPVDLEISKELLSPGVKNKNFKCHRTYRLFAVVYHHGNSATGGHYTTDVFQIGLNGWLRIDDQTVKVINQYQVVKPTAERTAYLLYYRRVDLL
# UniProt P31930: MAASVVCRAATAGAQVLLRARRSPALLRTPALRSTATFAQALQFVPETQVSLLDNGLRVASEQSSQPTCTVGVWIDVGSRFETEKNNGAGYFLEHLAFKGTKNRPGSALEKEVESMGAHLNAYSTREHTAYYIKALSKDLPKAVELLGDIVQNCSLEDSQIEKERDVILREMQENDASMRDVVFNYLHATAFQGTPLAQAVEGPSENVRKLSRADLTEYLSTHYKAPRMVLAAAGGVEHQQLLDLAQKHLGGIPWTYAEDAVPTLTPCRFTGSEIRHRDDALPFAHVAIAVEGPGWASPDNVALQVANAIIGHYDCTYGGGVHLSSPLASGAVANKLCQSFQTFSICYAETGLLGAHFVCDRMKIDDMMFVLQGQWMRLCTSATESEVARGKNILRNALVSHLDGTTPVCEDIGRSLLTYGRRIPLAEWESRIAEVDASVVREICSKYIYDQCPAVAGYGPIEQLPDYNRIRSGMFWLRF
# UniProt P07919: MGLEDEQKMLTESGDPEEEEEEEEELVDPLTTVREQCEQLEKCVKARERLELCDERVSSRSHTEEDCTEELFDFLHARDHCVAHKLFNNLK
# UniProt Q9UMX0, whole entry, looked up: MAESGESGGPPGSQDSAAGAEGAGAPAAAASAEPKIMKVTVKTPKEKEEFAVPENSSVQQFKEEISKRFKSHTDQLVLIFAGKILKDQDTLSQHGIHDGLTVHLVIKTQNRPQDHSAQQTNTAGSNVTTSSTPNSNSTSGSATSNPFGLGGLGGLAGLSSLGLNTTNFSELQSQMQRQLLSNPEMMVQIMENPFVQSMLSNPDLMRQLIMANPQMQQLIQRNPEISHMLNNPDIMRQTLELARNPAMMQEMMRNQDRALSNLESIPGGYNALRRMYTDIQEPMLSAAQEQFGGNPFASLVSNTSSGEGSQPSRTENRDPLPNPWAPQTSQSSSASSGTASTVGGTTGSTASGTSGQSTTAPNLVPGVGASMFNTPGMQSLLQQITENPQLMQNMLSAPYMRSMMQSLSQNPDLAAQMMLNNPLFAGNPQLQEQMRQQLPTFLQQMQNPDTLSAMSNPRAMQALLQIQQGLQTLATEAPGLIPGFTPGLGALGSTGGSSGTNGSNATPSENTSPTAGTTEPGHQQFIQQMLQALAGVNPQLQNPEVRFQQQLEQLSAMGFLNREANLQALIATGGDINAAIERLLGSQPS
# UniProt Q92995: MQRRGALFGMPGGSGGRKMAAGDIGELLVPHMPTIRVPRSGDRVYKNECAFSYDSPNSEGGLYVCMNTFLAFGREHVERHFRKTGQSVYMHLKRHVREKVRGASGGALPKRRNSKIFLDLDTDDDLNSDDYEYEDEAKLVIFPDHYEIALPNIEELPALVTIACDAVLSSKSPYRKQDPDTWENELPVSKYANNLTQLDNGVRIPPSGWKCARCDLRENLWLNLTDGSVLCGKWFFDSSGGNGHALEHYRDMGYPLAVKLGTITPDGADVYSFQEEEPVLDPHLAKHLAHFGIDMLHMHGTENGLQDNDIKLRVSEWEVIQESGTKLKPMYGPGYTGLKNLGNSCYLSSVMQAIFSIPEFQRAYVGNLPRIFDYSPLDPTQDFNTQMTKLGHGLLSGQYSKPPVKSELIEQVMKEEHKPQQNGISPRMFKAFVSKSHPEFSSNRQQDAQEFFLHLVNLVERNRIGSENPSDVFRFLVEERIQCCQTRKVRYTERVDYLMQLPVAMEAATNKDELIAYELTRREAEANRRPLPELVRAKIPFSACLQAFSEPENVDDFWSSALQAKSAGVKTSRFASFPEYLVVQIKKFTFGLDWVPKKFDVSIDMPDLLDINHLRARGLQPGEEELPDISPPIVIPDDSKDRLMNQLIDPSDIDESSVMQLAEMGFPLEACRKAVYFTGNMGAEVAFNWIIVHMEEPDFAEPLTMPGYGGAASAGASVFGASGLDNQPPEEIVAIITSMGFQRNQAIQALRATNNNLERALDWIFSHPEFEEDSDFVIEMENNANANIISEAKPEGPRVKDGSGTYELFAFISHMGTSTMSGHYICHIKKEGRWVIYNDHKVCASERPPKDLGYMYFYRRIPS
# UniProt P45974: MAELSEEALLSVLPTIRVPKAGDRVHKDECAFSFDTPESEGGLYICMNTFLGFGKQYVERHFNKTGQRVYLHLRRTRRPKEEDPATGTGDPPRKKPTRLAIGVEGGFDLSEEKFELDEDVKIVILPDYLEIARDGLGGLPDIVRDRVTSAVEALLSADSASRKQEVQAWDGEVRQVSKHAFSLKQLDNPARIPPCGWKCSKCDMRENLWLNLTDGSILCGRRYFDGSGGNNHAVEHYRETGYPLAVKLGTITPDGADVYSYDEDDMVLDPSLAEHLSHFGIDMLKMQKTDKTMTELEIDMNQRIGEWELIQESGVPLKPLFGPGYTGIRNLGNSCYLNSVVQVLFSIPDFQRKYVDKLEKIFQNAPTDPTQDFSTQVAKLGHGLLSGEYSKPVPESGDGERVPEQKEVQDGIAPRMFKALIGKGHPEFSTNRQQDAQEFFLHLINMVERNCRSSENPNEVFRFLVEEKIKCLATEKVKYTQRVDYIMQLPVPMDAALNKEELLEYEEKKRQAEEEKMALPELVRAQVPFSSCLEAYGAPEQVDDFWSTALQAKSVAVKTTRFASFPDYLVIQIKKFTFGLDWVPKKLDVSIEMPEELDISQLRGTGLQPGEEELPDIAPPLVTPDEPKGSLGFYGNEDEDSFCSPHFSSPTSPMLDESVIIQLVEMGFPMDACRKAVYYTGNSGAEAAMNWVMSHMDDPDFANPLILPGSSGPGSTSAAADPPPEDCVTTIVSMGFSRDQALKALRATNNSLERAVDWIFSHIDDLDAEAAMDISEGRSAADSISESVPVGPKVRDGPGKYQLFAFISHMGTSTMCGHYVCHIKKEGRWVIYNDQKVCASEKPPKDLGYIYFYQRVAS
# UniProt Q92575: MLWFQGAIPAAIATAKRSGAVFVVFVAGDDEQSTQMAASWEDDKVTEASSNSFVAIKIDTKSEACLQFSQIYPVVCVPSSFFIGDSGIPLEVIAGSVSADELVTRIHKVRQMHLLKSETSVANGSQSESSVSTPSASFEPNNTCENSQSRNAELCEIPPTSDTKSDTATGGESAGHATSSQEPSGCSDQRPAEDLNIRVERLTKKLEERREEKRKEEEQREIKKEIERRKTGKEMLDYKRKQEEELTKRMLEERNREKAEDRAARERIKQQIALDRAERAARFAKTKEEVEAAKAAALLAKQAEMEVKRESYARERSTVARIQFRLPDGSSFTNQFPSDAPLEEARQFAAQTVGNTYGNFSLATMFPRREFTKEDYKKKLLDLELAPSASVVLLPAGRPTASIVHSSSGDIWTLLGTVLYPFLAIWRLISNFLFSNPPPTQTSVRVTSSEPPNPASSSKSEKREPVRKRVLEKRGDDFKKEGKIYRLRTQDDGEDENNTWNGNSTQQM
# UniProt Q9BZL1: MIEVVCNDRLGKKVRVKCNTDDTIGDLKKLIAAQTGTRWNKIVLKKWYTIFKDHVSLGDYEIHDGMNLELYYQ
# UniProt Q9H3U1: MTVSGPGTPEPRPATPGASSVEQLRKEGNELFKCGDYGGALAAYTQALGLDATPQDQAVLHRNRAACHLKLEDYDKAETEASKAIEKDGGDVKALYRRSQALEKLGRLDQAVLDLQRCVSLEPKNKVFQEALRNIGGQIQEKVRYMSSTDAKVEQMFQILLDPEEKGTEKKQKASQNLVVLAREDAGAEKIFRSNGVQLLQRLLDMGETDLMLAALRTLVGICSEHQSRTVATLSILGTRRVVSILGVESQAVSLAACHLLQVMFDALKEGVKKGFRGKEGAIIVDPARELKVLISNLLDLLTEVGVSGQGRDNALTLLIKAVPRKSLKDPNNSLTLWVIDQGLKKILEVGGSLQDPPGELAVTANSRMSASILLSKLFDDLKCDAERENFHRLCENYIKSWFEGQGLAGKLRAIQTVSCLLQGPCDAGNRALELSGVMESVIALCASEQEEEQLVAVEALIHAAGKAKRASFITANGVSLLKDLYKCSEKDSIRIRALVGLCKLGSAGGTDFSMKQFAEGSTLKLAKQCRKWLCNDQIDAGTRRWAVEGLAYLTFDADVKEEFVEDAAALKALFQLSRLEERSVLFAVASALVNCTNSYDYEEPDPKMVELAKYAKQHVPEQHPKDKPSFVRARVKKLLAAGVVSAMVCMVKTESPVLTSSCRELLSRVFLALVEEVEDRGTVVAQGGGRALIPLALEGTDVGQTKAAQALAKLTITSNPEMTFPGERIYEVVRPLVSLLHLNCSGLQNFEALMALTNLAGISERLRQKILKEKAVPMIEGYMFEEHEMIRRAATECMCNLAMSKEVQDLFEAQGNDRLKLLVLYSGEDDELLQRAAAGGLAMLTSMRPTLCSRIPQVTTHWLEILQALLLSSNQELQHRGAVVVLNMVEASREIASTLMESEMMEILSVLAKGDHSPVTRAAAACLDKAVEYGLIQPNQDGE
# UniProt Q9P0L0: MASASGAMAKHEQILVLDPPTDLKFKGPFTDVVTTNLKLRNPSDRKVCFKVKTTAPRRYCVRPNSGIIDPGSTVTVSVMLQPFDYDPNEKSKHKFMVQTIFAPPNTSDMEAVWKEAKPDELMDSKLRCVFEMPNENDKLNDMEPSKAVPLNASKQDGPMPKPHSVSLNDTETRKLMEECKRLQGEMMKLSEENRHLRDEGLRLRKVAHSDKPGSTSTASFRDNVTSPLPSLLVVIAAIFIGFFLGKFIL
# Compound: CC1=C(SC2=C1C(=N[C@H](C3=NN=C(N32)C)CC(=O)N)C4=CC=C(C=C4)Cl)C
# Experiment: log2 fold change, soluble protein after heating vs DMSO (PISA); higher = thermal stabilisation; K562 cells, 10 uM, 30 min; active = over 0.2 and 3.5 SD of the protein, either way, in both replicates (recomputed)
# Summary of the method: (§1)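 K562 cells at 2×10^6 cells/mL were treated for 30 min with 10 μM compound, and aliquots were heated for 3 min over 48°C-58°C before pooling. Extraction used PBS with 0.5% NP-40 at 4°C, and soluble protein was the supernatant after 21,000xg for 90 min, measured by TMTpro 16plex LC-MS/MS with channel sums equalised. Thermal stability values, relative to control samples and from duplicates, are log2 fold changes.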
row,Target,log2 fold change
1,UBIAD1 (UniProt Q9Y5Z9),inactive: 0.029
2,USP1 (UniProt O94782),inactive: -0.118
3,UVRAG (UniProt Q9P2Y5),inactive: 0.012
4,UQCRFS1 (UniProt P47985),inactive: 0.006
5,UBQLN4 (UniProt Q9NRR5),inactive: -0.03
6,USP10 isoform 2 (UniProt Q14694),inactive: -0.012
7,UQCRC1 (UniProt P31930),inactive: 0.003
8,UQCRC2 (UniProt P22695),inactive: 0.032
9,UBE4B isoform 4 (UniProt O95155),inactive: 0.03
10,UTP4 (UniProt Q969X6),inactive: 0.039
11,USP34 (UniProt Q70CQ2),inactive: 0.081
12,UQCRH (UniProt P07919),inactive: -0.033
13,UBQLN1 (UniProt Q9UMX0),inactive: -0.033
14,VAMP7 (UniProt P51809),inactive: 0.044
15,UEVLD (UniProt Q8IX04),inactive: 0.071
16,UGGT1 (UniProt Q9NYU2),inactive: 0.027
17,USP13 (UniProt Q92995),inactive: -0.009

row,Target,log2 fold change
1,USP5 (UniProt P45974),inactive: 0.033
2,UBQLN2 (UniProt Q9UHD9),inactive: 0.045
3,UGP2 (UniProt Q16851),inactive: 0.05
4,UBXN4 (UniProt Q92575),inactive: 0.052
5,UBL5 (UniProt Q9BZL1),inactive: -0.102
6,URI1 isoform 4 (UniProt O94763),inactive: -0.279
7,UNC45A (UniProt Q9H3U1),inactive: -0.046
8,UBP1 (UniProt Q9NZI7),inactive: 0.045
9,VAPB (UniProt O95292),inactive: 0.008
10,VAPA (UniProt Q9P0L0),inactive: 0
11,UBE3C (UniProt Q15386),inactive: 0.037
12,USP30 (UniProt Q70CQ3),inactive: 0.016
13,VAMP2 (UniProt P63027),inactive: 0.093
14,UQCRB (UniProt P14927),inactive: 0.043
15,USP14 (UniProt P54578),inactive: 0.03
16,UPF2 (UniProt Q9HAU5),inactive: -0.082
17,UBLCP1 (UniProt Q8WVY7),inactive: 0.067

# Compound: CC1=C2C(=CC=C1)N=C(N(C2=O)C3=CC=CC=C3C)CN4C=NC5=C(N=CN=C54)N
# Experiment: as above
# Summary of the method: as §1
row,Target,log2 fold change
1,UBIAD1 (UniProt Q9Y5Z9),inactive: 0.068
2,USP1 (UniProt O94782),inactive: 0.251
3,UVRAG (UniProt Q9P2Y5),inactive: 0.165
4,UQCRFS1 (UniProt P47985),inactive: -0.047
5,UBQLN4 (UniProt Q9NRR5),inactive: -0.011
6,USP10 isoform 2 (UniProt Q14694),inactive: -0.018
7,UQCRC1 (UniProt P31930),inactive: 0.028
8,UQCRC2 (UniProt P22695),inactive: 0.01
9,UBE4B isoform 4 (UniProt O95155),inactive: 0.019
10,UTP4 (UniProt Q969X6),inactive: -0.044
11,USP34 (UniProt Q70CQ2),inactive: 0.142
12,UQCRH (UniProt P07919),inactive: 0.038
13,UBQLN1 (UniProt Q9UMX0),inactive: 0.055
14,VAMP7 (UniProt P51809),inactive: 0.077
15,UEVLD (UniProt Q8IX04),inactive: 0.229
16,UGGT1 (UniProt Q9NYU2),inactive: -0.003
17,USP13 (UniProt Q92995),inactive: 0.076

row,Target,log2 fold change
1,USP5 (UniProt P45974),inactive: 0.076
2,UBQLN2 (UniProt Q9UHD9),inactive: 0.023
3,UGP2 (UniProt Q16851),inactive: 0.047
4,UBXN4 (UniProt Q92575),inactive: 0.038
5,UBL5 (UniProt Q9BZL1),inactive: 0.051
6,URI1 isoform 4 (UniProt O94763),inactive: -0.074
7,UNC45A (UniProt Q9H3U1),inactive: 0.023
8,UBP1 (UniProt Q9NZI7),inactive: 0.047
9,VAPB (UniProt O95292),inactive: 0.024
10,VAPA (UniProt Q9P0L0),inactive: 0.029
11,UBE3C (UniProt Q15386),inactive: 0.072
12,USP30 (UniProt Q70CQ3),inactive: -0.089
13,VAMP2 (UniProt P63027),inactive: -0.017
14,UQCRB (UniProt P14927),inactive: 0.049
15,USP14 (UniProt P54578),inactive: 0.046
16,UPF2 (UniProt Q9HAU5),inactive: -0.144
17,UBLCP1 (UniProt Q8WVY7),inactive: 0.066

# Compound: Cc1sc2c(c1C)C(c1ccc(Cl)cc1)=N[C@@H](CC(=O)OC(C)(C)C)c1nnc(C)n1-2
# Experiment: as above
# Summary of the method: as §1
row,Target,log2 fold change
1,UBIAD1 (UniProt Q9Y5Z9),inactive: -0.074
2,USP1 (UniProt O94782),inactive: -0.1
3,UVRAG (UniProt Q9P2Y5),inactive: -0.035
4,UQCRFS1 (UniProt P47985),inactive: -0.009
5,UBQLN4 (UniProt Q9NRR5),inactive: -0.013
6,USP10 isoform 2 (UniProt Q14694),inactive: 0.066
7,UQCRC1 (UniProt P31930),inactive: -0.029
8,UQCRC2 (UniProt P22695),inactive: -0.02
9,UBE4B isoform 4 (UniProt O95155),inactive: 0.006
10,UTP4 (UniProt Q969X6),inactive: 0.004
11,USP34 (UniProt Q70CQ2),inactive: -0.003
12,UQCRH (UniProt P07919),inactive: -0.019
13,UBQLN1 (UniProt Q9UMX0),inactive: -0.089
14,VAMP7 (UniProt P51809),inactive: -0.047
15,UEVLD (UniProt Q8IX04),inactive: 0.066
16,UGGT1 (UniProt Q9NYU2),inactive: -0.007
17,USP13 (UniProt Q92995),inactive: 0.005

row,Target,log2 fold change
1,USP5 (UniProt P45974),inactive: 0
2,UBQLN2 (UniProt Q9UHD9),inactive: -0.091
3,UGP2 (UniProt Q16851),inactive: -0.029
4,UBXN4 (UniProt Q92575),inactive: -0.032
5,UBL5 (UniProt Q9BZL1),inactive: -0.016
6,URI1 isoform 4 (UniProt O94763),inactive: 0.004
7,UNC45A (UniProt Q9H3U1),inactive: -0.018
8,UBP1 (UniProt Q9NZI7),inactive: 0.075
9,VAPB (UniProt O95292),inactive: -0.015
10,VAPA (UniProt Q9P0L0),inactive: -0.033
11,UBE3C (UniProt Q15386),inactive: -0.019
12,USP30 (UniProt Q70CQ3),inactive: -0.16
13,VAMP2 (UniProt P63027),inactive: -0.016
14,UQCRB (UniProt P14927),inactive: -0.044
15,USP14 (UniProt P54578),inactive: -0.028
16,UPF2 (UniProt Q9HAU5),inactive: 0.215
17,UBLCP1 (UniProt Q8WVY7),inactive: -0.018
